Assay results from publication PMC8041783.
No constants are given. Whether binding was seen depends on the method and setting. In cells and extracts the contact can be indirect. Some results given as binding are weak or reduced against the parent protein; the word gives no strength.

The chains behind the UniProt entries cited, without tags or fusion partners.
UniProt P26465: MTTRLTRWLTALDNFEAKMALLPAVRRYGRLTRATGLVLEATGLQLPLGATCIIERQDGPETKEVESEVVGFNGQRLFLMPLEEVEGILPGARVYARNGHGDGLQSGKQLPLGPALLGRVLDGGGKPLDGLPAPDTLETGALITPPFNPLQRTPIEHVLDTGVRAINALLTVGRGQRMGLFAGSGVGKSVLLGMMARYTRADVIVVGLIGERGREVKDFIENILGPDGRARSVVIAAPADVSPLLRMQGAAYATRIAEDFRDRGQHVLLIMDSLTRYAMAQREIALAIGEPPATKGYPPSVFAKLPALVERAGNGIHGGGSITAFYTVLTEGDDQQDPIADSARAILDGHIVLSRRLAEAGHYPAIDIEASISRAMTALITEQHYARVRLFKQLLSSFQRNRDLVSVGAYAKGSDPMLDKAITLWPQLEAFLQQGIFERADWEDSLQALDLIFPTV
UniProt P0A1I9: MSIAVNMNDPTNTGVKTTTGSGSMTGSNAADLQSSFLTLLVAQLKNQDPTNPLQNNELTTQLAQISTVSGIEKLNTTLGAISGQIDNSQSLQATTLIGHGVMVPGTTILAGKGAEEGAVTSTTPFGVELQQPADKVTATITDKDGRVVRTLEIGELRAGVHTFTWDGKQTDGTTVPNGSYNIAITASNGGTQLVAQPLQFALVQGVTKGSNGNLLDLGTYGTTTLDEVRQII

Target: GST-FliI (Salmonella enterica) (UniProt P26465)
Experiment: pull-down; GST affinity chromatography: lysates of S. enterica SJW1368 expressing GST or GST fusions mixed with lysate of E. coli BL21 (DE3) Star overexpressing His-FlgD; Glutathione Sepharose 4B; wash with PBS; elution with 10 mM reduced glutathione; CBB and anti-FlgD immunoblot

His-FlgD (from UniProt P0A1I9 1-232)
binding: binds
